Reference: article PMC9464229
No constants are given. Whether binding was seen depends on the method and setting. In cells and extracts the contact can be indirect. Some entries that bind do so weakly or less than the wild type. For part of these data: Tags and fused reporters may be left off the sequences shown.

The chains behind the UniProt entries cited, without tags or fusion partners.
UniProt P46937: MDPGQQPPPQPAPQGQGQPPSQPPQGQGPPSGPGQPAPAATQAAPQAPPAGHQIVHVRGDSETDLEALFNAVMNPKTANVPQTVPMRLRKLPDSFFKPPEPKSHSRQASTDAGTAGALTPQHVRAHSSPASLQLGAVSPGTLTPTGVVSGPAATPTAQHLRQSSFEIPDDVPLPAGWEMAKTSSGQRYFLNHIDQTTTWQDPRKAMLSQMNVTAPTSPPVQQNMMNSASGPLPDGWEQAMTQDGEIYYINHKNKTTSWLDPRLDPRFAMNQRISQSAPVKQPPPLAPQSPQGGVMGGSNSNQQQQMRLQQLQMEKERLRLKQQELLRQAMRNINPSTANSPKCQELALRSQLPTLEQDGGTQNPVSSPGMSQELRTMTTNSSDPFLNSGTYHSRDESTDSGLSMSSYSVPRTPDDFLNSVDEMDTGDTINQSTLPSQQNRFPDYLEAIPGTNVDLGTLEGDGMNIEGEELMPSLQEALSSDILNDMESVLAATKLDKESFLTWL

How the values were obtained:
[1] = target: T1, P130cas (endogenous) (human (endogenous in A549)) (UniProt P56945); assay: co-IP; endogenous P130cas, YAP or FAK immunoprecipitated from A549 cells and immunoblotted (Fig. 5A-C)
T1 sequence: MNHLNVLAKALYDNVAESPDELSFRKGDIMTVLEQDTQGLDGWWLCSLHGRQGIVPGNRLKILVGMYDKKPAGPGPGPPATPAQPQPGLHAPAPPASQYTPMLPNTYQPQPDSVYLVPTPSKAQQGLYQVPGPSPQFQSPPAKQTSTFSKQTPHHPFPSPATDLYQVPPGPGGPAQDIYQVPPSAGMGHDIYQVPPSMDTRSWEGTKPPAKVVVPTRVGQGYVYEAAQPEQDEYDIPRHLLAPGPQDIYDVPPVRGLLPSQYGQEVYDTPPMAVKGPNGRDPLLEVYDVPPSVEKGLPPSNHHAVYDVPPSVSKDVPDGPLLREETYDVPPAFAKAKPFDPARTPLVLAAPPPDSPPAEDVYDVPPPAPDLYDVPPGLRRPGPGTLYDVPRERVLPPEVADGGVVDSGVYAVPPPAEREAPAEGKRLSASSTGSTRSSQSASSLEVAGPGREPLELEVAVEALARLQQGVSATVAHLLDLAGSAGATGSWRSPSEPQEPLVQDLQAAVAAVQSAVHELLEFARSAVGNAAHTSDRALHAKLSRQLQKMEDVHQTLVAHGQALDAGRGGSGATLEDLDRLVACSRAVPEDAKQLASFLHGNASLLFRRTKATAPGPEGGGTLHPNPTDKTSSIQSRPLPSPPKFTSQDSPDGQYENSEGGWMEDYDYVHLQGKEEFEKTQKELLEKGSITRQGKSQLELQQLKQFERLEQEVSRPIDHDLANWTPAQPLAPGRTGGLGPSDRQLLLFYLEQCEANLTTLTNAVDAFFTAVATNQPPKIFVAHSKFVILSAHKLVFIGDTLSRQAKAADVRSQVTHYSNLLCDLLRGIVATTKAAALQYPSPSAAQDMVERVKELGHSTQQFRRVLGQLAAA

[2] = target: T1, P130cas (endogenous) (human (endogenous in A549)); assay: co-IP; co-IP of P130cas and YAP (Fig. 3H, I); cells and whether endogenous or tagged proteins not stated
[3] = target: T2, Flag-P130cas (full-length) (UniProt P56945); assay: co-IP; tagged bait immunoprecipitated by Flag or Myc antibody from A549 cells infected with lentivirus or transfected with wild type or mutant, immunoblotted for the partners (Fig. 5D-F, Supplementary Fig. 6A)
T2 sequence: T1 sequence

Measured: binding

Yes-associated protein (YAP), endogenous (from UniProt P46937 1-504)
binds: all assays above
